The assay deals with T1, VSV-G-tagged full-length neogenin (human) (UniProt Q92859).
T1 sequence: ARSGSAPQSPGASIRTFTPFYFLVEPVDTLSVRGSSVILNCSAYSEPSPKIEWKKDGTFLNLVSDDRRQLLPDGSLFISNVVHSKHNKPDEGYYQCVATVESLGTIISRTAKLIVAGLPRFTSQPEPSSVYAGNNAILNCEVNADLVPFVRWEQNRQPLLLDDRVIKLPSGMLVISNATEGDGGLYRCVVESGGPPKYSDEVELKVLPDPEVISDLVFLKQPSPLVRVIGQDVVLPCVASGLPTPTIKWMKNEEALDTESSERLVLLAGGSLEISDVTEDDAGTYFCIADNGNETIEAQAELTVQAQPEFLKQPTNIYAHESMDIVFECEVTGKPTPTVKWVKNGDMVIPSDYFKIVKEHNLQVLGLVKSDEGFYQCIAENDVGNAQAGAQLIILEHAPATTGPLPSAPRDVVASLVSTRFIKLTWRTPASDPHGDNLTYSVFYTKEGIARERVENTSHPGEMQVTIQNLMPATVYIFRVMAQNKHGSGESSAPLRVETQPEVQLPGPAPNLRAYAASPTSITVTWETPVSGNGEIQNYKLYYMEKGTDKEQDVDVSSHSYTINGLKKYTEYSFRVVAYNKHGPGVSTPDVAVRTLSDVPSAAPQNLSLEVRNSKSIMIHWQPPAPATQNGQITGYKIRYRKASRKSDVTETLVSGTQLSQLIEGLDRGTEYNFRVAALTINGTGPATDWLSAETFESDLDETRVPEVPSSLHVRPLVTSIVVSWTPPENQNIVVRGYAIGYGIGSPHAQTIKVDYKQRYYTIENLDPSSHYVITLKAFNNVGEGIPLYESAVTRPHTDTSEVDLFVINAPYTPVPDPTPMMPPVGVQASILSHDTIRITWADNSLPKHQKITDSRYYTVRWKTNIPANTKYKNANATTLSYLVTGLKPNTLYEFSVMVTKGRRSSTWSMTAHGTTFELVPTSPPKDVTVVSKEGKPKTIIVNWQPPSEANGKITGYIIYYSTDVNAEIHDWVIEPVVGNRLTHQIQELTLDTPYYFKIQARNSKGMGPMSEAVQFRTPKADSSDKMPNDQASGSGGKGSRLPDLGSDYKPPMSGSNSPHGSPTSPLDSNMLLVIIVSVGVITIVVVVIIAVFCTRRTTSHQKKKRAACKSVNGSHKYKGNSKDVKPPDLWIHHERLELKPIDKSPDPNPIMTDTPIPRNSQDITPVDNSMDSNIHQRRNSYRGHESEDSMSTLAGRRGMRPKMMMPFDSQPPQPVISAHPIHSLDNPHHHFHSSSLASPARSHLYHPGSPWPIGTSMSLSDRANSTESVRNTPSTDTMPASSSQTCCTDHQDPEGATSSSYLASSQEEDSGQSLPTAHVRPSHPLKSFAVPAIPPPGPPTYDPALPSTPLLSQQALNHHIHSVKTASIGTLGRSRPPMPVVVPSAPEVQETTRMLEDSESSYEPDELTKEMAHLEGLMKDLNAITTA
Briefly: co-IP; HEK293T cells co-transfected with VSV-G-neogenin and Myc-RGMa constructs, 36-48 h; lysis in 1% Triton X-100, 150 mM NaCl, 20 mM Tris/HCl pH 7.5; IP with anti-VSV-G and protein A-sepharose at 4°C; blot with anti-Myc.

Amino acid sequences for entries named in this document (tags omitted). A change or cut given only in a name is not applied to a line headed by its entry.
UniProt Q96B86: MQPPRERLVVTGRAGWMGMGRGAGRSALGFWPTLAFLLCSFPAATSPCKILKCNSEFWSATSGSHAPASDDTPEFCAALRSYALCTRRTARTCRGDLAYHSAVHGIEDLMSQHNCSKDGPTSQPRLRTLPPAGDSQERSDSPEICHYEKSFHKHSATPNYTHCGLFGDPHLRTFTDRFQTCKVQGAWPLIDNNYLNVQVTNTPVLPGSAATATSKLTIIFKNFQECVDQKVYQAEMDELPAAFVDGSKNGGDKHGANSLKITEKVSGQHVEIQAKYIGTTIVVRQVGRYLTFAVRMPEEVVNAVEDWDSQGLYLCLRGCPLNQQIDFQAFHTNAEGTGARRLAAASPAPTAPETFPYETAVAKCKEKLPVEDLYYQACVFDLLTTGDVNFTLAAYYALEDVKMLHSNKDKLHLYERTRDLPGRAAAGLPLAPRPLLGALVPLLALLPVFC

Results are given in words; binding and its absence hold for the method and conditions named. In cells and extracts the contact can be indirect. Binding calls can cover weak binding; strength is not graded here. Sequences can lack the tags named with a protein.

As to “C-RGMa1 (C-RGMa with aa 169-258 deleted), Myc-tagged (from UniProt Q96B86) (domain or fragment)”, the binding result is “binds”.
The same measure for “C-terminal region of RGMa without a GPI anchor domain, Myc-tagged (human) (domain or fragment)”: “binds”.
The same measure for “C-RGMa2 (C-RGMa with aa 169-332 deleted), Myc-tagged (from UniProt Q96B86) (domain or fragment)”: “no binding”.
The same measure for “N-terminal region of RGMa, Myc-tagged (human) (domain or fragment)”: “no binding”.

The record behind these values is PMC3291610, “Identification of the Neogenin-Binding Site on the Repulsive Guidance Molecule A” (PLoS ONE, 2012).
